# At least one compound was matched to its structure with a doubt left.
# Experiments:
# [1] = system: primary colonic epithelial cells (PCECs); test: In vitro allogeneic CTL assay, AnnexinV positive cells of Green CMFDA Dye positive PCECs; details: PCECs pre-treated with NAD for 2 hours
# [2] = system: primary colonic epithelial cells (PCECs); test: Apoptosis of pre-treated PCECs induced by perforin and Granzyme B; format: cell-based, C57BL/6 mice; details: pre-treated 2 hours, then perforin and Granzyme B 4 hours
# Procedure: Cell culture: C57BL/6 primary colonic epithelial cells (PCEC, C57-6047, Cell Biologics, Chicago, IL) were cultured in compete epithelial growth medium supplemented with insulin-transferrin-selenium, epidermal growth factor, glutamine, antibiotics, antimycotics and fecal bovine serum (#M6621, Cell Biologics). Cells were routinely tested for mycoplasma contamination using MycoAlert (#LT07-318, Lonza, Switzerland). Cells were treated with Mouse active perforin (#APB317Mu01, Cloud-Clone Corp., Katy, TX) and recombinant mouse Granzyme B (#140-03, PeproTech, Rocky Hill, NJ) for 4 to 6 hours in indicated concentrations following manufacturer's recommendations. Cells were incubated with GDF-15 (#8944-GD-025, 500 pg/mL, R&D Systems, Minneapolis, MN), Tiron (#172553, 10 mM, Sigma-Aldrich, St. Louis, MO), Trolox (#648471, 0.5 mM, Sigma-Aldrich), 4-Octyl itaconate (#SML2338, 0.1 mM, Sigma-Aldrich) and NAD (#N8285, 1 mM, Sigma-Aldrich).
# IECs = test: FIG. 18 butyrate effects on IECs
structure (smiles),measurement,setting,value
"NC(=O)c1ccc[n+]([C@@H]2O[C@H](COP(=O)([O-])OP(=O)(O)OC[C@H]3O[C@@H](n4cnc5c(N)ncnc54)[C@H](O)[C@@H]3O)[C@@H](O)[C@H]2O)c1 [NAD, nicotinamide adenine dinucleotide]",apoptosis of PCECs caused by allogeneic T cells,[1],reduced apoptosis
same,apoptosis of PCECs induced by GranzymeB and perforin,[2],reduced apoptosis
CCCC(=O)O [butyrate],IEC related SDHA activity and/or expression,IECs,reduce
same,IEC related accumulation of perforin dependent granzyme B,IECs,increase
same,IEC related oxidative phosphorylation,IECs,reduce
same,IEC related succinate accumulation,IECs,increase
